# Reference: patent US9682992B2, “Derivatives of camptothecin, a method of producing them and their use” (INSTYTUT CHEMII ORGANICZNEJ POLSKIEJ AKADEMII NAUK, priority 2012, dated 2017)
# Test system: DNA oligomer d(GCGATCGC)2
# Experiment: PFGSE NMR diffusion measurement of DNA/TPT derivative before and after UV exposure
# Assay type: binding
# Conditions: prior to UV exposure, FIG. 1
smiles,measurement,value
CC[C@@]1(O)C(=O)OCc2c1cc1n(c2=O)Cc2cc3c(C[N+](C)(C)C)c(O)ccc3nc2-1.O=S(=O)([O-])C(F)(F)F [[Me3N^+CF3SO3^−]],diffusion coefficient Di of DNA with non-covalently bound derivative of TPT,ca. 1.7×10^−10 m^2/s
same,diffusion coefficient Di of unbound derivative of TPT in rapid exchange with DNA,2.3×10^−10 m^2/s
